Results reported in US8809627B2, “Plant isoflavone and isoflavanone O-methyltransferase genes” (The Samuel Roberts Noble Foundation, Inc., priority 2006, dated 2014).
Some of these results come from one statement about several compounds together. Some compounds share one range, which may span the group rather than tell each member.

Tested on: MtIOMT2
Experiment: OMT assays with purified recombinant MtIOMT2 (relative activity; HPLC/MS of products)
Type: biochemical, Medicago truncatula
Settings: 50 μM S-adenosyl methionine, 100 μM acceptor substrate; most converted substrate (daidzein) = 100%; listed as glycitein
Excerpt: Cloning of MtIOMT5 (corresponding to TC 100926, TIGR MtGI v.8) was as described previously (Liu et al., 2005). To obtain a full-length cDNA for MtIOMT2, specific primers designed based upon the M. truncatula genomic sequence were used to amplify the MtIOMT2 coding sequence from M. truncatula root cDNA. The amplified product was cloned into the pGEM®-T easy vector (Promega, Madison Wis.) and sequenced to confirm its identity. MtIOMTs were cloned into the pET28a vector (EMD Biosciences, Inc., San Diego, Calif.) using PCR-based amplification with primers designed to introduce EcoRI and XhoI restriction sites; BamHI and XhoI sites were used for cloning MtIOMT6 due to the presence of an internal EcoRI site in this particular cDNA. […] All MtIOMTs were expressed as translational fusions to an N-terminal His-tag. […] Protein concentration was determined by Bradford assay using BSA as a standard (Bradford, 1976).
Reactions (200 μl) were performed in 0.1 M potassium phosphate, pH 7.4, 10% (w/v) sucrose, 14 mM β-mercaptoethanol with 10 μM protein, 0.5 mM S-adenosyl-L-methionine, and 80 μM phenolic substrates. […] Samples were analyzed on an Agilent 1100 HPLC, equipped with a quaternary pump (model #G1311A), a degasser (model #G1322A), an autosampler (model #G1313A), and a diode array detector (model #G1315A). […]

In the case of COc1cc2c(=O)c(-c3ccc(O)cc3)coc2cc1O [Glycitein], the “Relative activity, MtIOMT2” value is reported as 35-43.1%.
